Laboratory results reported in paper PMC7791724.
No constants are given. Whether binding was seen depends on the method and setting. Binding seen in cells or lysates may run through a third protein. Some entries that bind do so weakly or less than the wild type.

T1: wild type AGR2 (anterior gradient-2) (human), O95994
T1 chain: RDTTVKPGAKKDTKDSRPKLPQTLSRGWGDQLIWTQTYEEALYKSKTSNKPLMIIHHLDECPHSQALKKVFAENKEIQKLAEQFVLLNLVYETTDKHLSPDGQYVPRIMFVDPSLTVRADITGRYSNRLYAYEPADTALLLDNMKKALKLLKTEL


Key:
[1] = biological target: AGR2 deletion mutant lacking the C-terminal KTEL motif (human) (UniProt O95994); test: cross-linking; DSP-mediated chemical crosslinking of AGR2 in cell lysates and culture supernatant of PANC-1 stable cells, non-reducing (and reducing) SDS-PAGE, Western blot with anti-AGR2
[2] = biological target: T1, wild type AGR2 (anterior gradient-2) …; test: as above; settings: remark: other sources report otherwise

Row | binding [1] | binding [2] | Molecule
1 | binds |  | AGR2 deletion mutant lacking the C-terminal KTEL motif (from UniProt O95994 21-175)
2 |  | binds | wild type AGR2 (anterior gradient-2), O95994 21-175 (protein) RDTTVKPGAKKDTKDSRPKLPQTLSRGWGDQLIWTQTYEEALYKSKTSNKPLMIIHHLDECPHSQALKKVFAENKEIQKLAEQFVLLNLVYETTDKHLSPDGQYVPRIMFVDPSLTVRADITGRYSNRLYAYEPADTALLLDNMKKALKLLKTEL
